In patent US20230263807A1, “TREPROSTINIL ILOPROST COMBINATION THERAPY” (United Therapeutics Corporation, priority 2022, published 2023):
The name of at least one read-out is uncertain.

Test: Formulation development: measured pH and osmolality of the formulations
Type: physicochemical
Details: 600 μg/mL in 10 mM sodium phosphate buffer

Question: With `CCCCC[C@H](O)CC[C@@H]1[C@H]2Cc3cccc(OCC(=O)O)c3C[C@H]2C[C@H]1O` [Treprostinil] as the compound, how does the “solubilization in the formulation buffer” value read?
Answer: The value was “required the addition of base to solubilize”.
